Data reported in US20110059093A1.
No constants are given. Whether binding was seen depends on the method and setting.

B1: anti-Tau pS422 antibody Mab 005 (antibody, V domains shown)
VH: QSVEESGGRLVTPGTPLTLTCTVSGLSLSSNAINWVRQAPGKGLEWIGYISTSGNTYYASWAKGRFTISKTSTTVDLKITSPTTEDTATYFCGRGDLWGPGTLVTVSS
VL: QVLTQTASPVSAAVGSTVTINCQASQSVYKNNYLAWFQQKPGQPPKRLIYSASTLASGVSSRFKGSGSGTQFTLTISDVQCDDAATYYCLGSCDSSSNNCVAFGGGTEVVVK
B2: anti-Tau pS422 antibody Mab 020 (antibody, V domains shown)
VH: QSVEESGGRLVTPGTPLTLTCKVSGFSLSSYDMNWVRQAPGKGLEWVGAISTGGNTYYASWAKGRFTISKTSTTVTLTITSPTTADTATYFCARGSSIWGPGTLVTVSL
VL: QVLTQTASPVSAAVGSTVTINCQASQSVYKNNYLRWYQQKPGQPPKRLIYTASTLASGVSSRFKGSGSGTQFTLTISDVQCDDAATYYCLGGYDCNSADCWAFGGGTEVVVK
B3: anti-Tau pS422 antibody Mab 097 (antibody, V domains shown)
VH: QSVEESGGRLVTPGTPLTLTCTVSGIDLSSYSITWVRQAPGKGLEYIGFIGTGGSTYYASWAKGRFTISRTSTTVDLKITSPTTEDTATYFCARGGDLWGPGTLVTVSS
VL: QVLTQTASSVSAAVGGTVTINCQSSQNVYNNNKLAWFQQKPGQPPKRLIYGASTLASGVSSRFKGSGSGTQFTLTISDLECDDAATYYCLGGYSGNIYTFGGGTEVVVK
B4: anti-Tau pS422 antibody Mab 019 (antibody, V domains shown)
VH: QSVEESGGRLVTPGTPLTLTCTVSGIDLSSYTMNWVRQAPGKGLDWIGFINSGGYTSYASWTRGRFTISKTSTTVDLRITSPTTEDTATYFCARYGGGSGFDLWGPGTLVTVSS
VL: QVLTQTASSVSAAVGGTVTINCQSSQSVYNNRLAWYQQKPGQPPKLLIYKASTLASGVPSRFKGSGSGTQFTLTISDLECDDAATYYCAGGYINIFAFGGGTEVVVK
B5: anti-Tau pS422 antibody Mab 085 (antibody, V domains shown)
VH: QSVEESGGRLVTPGTPLTLTCTVSGLSLSSNAINWVRQAPGKGLEWIGYIAVSGNTYYASWAKGRFTISKASTTVDLKMTSPTAEDTGTYFCGKSNIWGPGTLVTVSL
VL: QVLTQTASPVSAAVGITVTISCQSSQSVRTNKLAWFQQKPGQPPKRLIYSASTLDSGVPSRFSASGSGTQFTLTISDVQCDDAATYYCLGYYDCSIADCVAFGGGTEVVVK
B6: anti-Tau pS422 antibody Mab 086 (antibody, V domains shown)
VH: QSVEESGGRLVTPGTPLTLTCTVSGFSLSSNAINWVRQAPGKGLEWIGYIAVSGNTYYASWAKGRFTISKASTTVDLKMTSPTAEDTGTYFCGKSNIWGPGTLVTVSL
VL: QVLTQTTSPVSAAVGSTVTISCQSSQSVRTNKLAWFQQKPGQPPKRLIYSASTLDFGVPSRFSASGSGTQFTLTISDVQCDDAATYYCLGYFDCSIADCVAFGGGTEVVVK

Biological target: KLH (key hole limpet hemocyanine)
Experiment: condition: 1:5 dilution of the cell culture supernatants; ELISA, single-point measurement

binding, no binding:
B1, B2, B3, B4, B5, B6
